This is one part of the list. Further columns of the screen follow, without active or inactive calls. Most of these compounds were active or inconclusive in the main read-out, so they are no random draw. Words in brackets tell the shape of the fitted curve; partial curves, single points and poor fits give uncertain potencies.
Assay: qHTS Assay to Find Inhibitors of Chronic Active B-Cell Receptor Signaling
Conditions: ABC-DLBCL IkBa-CBG/CBR reporter, luminescence ratio (green luciferase fused to IkBa over red control in TMD8 lymphoma cells), 4 h
Outline: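 Cell line TMD8 (human ABC DLBCL), stably expressing tet-inducible CBG68-IkBa fusion and CBR; IMDM/0.5% FBS; cpd up to 46 uM; dox induction, 4 h, 37C/5% CO2; dual luminescence; green/red ratio; MG132 control.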

[1] = measured here: CBR red luminescence, cell number
[2] = measured here: IkBa-CBG green luminescence

Compound | AC50 [1] | AC50 [2]
COc1ccc(Cl)cc1NC(=O)C1CC(c2c(F)cccc2Cl)=NO1 (stereo not given) | 14.1 µM [falling, single point] | 
CC(C)(C)c1cc(NC(=O)c2cc(F)c(F)c(F)c2F)no1 | 1.03 µM [falling, full curve] | 
COc1ccc(C(=O)C(C)OC(=O)CN2C(=O)c3ccccc3C2=O)cc1 (stereo not given) | 5.8 µM [rising, full curve] | 
CCCS(=O)(=O)NCCc1csc2nc(-c3ccc(OC)cc3)nn12 | 7.08 µM [rising, partial curve, poor fit] | 
CCOc1c(Cl)cc(CNCC(C)C)cc1OC | 18.4 µM [rising, partial curve] | 13 µM [falling, partial curve]
Cc1ccc(/C=N/NC(=O)c2cccs2)s1 | 16.4 µM [falling, partial curve, poor fit] | 
Cc1ccc(NC(=O)CN2C(=O)NC(C)(C3CC3)C2=O)c([N+](=O)[O-])c1 (stereo not given) | 20.6 µM [rising, single point] | 
COc1ccc(-c2cc(C(=O)N3CC4(C)CC3CC(C)(C)C4)no2)cc1OC (stereo not given) | 35.5 µM [falling, single point] | 
CCn1c(NC(=O)c2ccc(C)cc2)c2ccccc2nc1=O | 2.59 µM [rising, partial curve, poor fit] | 
COc1ccccc1N(CC(=O)NCCSCc1ccc(Cl)cc1)S(C)(=O)=O | 22.4 µM [falling, single point] | 
O=C1/C(=C/Nc2ccc3c(c2)OCO3)CCc2ccccc21 | 5.17 µM [falling, partial curve] | 
Oc1ccc(-c2csc(-c3cccnc3)n2)cc1O | 15.8 µM [falling, single point] | 
CCOC(=O)c1c(NC(=O)c2ccc(Cl)cc2)csc1C | 11.6 µM [falling, single point] | 
O=C(CSc1ccc2ccccc2c1)Nc1ccncc1 | 0.92 µM [rising, full curve] | 
CCOC(=O)c1sc(NC(=O)c2cccnc2)nc1C | 23.1 µM [falling, partial curve, poor fit] | 
O=C(COC(=O)c1ccccc1Br)NCCC1=CCCCC1 | 1.41 µM [rising, full curve, poor fit] | 
O=C(Nc1cc(Cl)cc(Cl)c1)C1CCC(=O)N1Cc1ccccc1Cl (stereo not given) | 25.9 µM [falling, single point] | 
CC(C)Cc1nnc(NC(=O)C2CCN(C(=O)c3ccc(Cl)cc3)CC2)s1 | 3.66 µM [rising, partial curve] | 
S=C(NCC1CCCCC1)Nc1ccc(Oc2ccccc2)cc1 | 16.4 µM [falling, single point] | 
COc1cc(S(=O)(=O)N2CCOCC2)ccc1NC(=O)CSc1nnc(N)s1 | 35.5 µM [rising, single point] | 
COc1ccc(OC)c(/C=C/C(=O)c2ccc3c(c2)OCCO3)c1 | 17.8 µM [falling, single point] | 
Cn1c(-c2sc3ccccc3c2Cl)n[nH]c1=S | 20.6 µM [rising, single point] | 

Compound | AC50 [1] | AC50 [2]
O=C(NC1CCCCC1)c1cccc2c1C(=O)c1ccc(N3CCCC3)cc1S2(=O)=O | 23.1 µM [falling, single point] | 
CC(C)(C)C(=O)Nc1sc(-c2ccccc2)cc1C(=O)O | 35.5 µM [falling, single point] | 
COc1ccccc1/C(C)=N/NC(=S)NCc1ccccc1 | 35.5 µM [rising, single point] | 31.6 µM [falling, single point]
Cc1ccccc1-n1c(=O)n(Cc2ccccc2)c(=O)c2[nH]cnc21 | 11.2 µM [rising, partial curve, poor fit] | 2 µM [falling, partial curve, poor fit]
Cc1cc(-c2ccccc2)n2ncc(-c3ccccc3)c2n1 | 23.1 µM [falling, partial curve] | 
O=C(c1cc2cc([N+](=O)[O-])ccc2oc1=O)N1CCN(c2ncccn2)CC1 | 3.66 µM [rising, partial curve, poor fit] | 
C/C(CCc1ccc2c(c1)OCO2)=N\NC(=S)NC(C)C | 31.6 µM [falling, single point] | 25.1 µM [falling, single point]
COc1ccc(-c2nnc(-c3ccccc3O)o2)cc1 | 10 µM [falling, single point] | 
COc1ccc2c(c1OC)C(=O)OC2Nc1nc(-c2cc3ccccc3oc2=O)cs1 (stereo not given) | 16.4 µM [falling, single point] | 
COc1ccc(S(=O)(=O)N(C)CC(=O)NCCc2ccccc2)cc1OC | 7.94 µM [rising, partial curve, poor fit] | 
S=C(NCCN(C1CCCCC1)C1CCCC1)Nc1cccc(Cl)c1 | 35.5 µM [falling, single point] | 
Oc1ccccc1N1CCN(Cc2ncc(-c3ccccc3)o2)CC1 | 22.4 µM [falling, single point] | 
COc1cc2c(cc1[N+](=O)[O-])n(C(C)C)c(=O)n2C(C)C | 0.1 µM [rising, full curve, poor fit] | 15.8 µM [falling, partial curve, poor fit]
COCCN(CCOC)C(=O)CCn1c(=O)oc2ccccc21 | 23.1 µM [rising, single point] | 
Cc1ccc(CNC(=O)CCS(=O)(=O)c2ccc(Cl)cc2)cc1 | 6.51 µM [rising, single point] | 
COC(=O)Nc1sccc1C(=O)Nc1sccc1C(=O)OC | 20.6 µM [rising, partial curve, poor fit] | 
COc1cc(NC(=O)CCCc2c[nH]c3ccccc23)cc(OC)c1 | 16.4 µM [falling, partial curve] | 
CCc1cccc(CC)c1NC(=O)C1CC(=O)N(c2ccc3c(c2)OCCO3)C1 (stereo not given) | 1.46 µM [rising, full curve] | 
CCn1c(N)c(C(=O)NCCCOC)sc1=S | 5.62 µM [rising, single point] | 
Cc1noc(C)c1S(=O)(=O)N1CCC(C(=O)N2CCN(c3ccccc3Cl)CC2)CC1 | 5.17 µM [rising, partial curve, poor fit] | 
O=C(CC(c1ccccc1)c1ccccc1)Nc1ccc(O)cc1 | 10 µM [falling, partial curve] | 
CCOC(=O)CNC(=O)Cn1cnc2c(nnn2-c2cccc(Cl)c2)c1=O | 16.4 µM [rising, partial curve, poor fit] | 

Compound | AC50 [1] | AC50 [2]
CN1C(=O)/C(=C/c2cccc(Cl)c2)Sc2ccc(C(=O)NCc3cccnc3)cc21 | 35.5 µM [falling, single point] | 
CN(C)c1ccc(NC(=O)c2ccc3nsnc3c2)cc1 | 2.31 µM [falling, partial curve] | 
O=C(N/N=C/c1sc(=O)[nH]c1-[n+]1ccc2ccccc2c1)c1ccccc1[O-] | 2.82 µM [falling, full curve] | 
CCc1cccc(CC)c1NC(=O)CO/N=C(\C)c1cccs1 | 23.1 µM [rising, single point] | 
Cc1cc(=O)[nH]c(-n2nc(C)cc2C)n1 | 35.5 µM [rising, single point] | 31.6 µM [falling, single point]
COc1ccccc1NC(=O)N1CCN(c2ncccn2)CC1 | 0.0291 µM [rising, full curve, poor fit] | 
O=C(/C=C/c1ccc2c(c1)OCO2)Nc1cccnc1 | 11.2 µM [falling, partial curve] | 
COc1cc(/C=N/NC(=O)c2ccc(Cn3cc([N+](=O)[O-])cn3)o2)cc(Br)c1O | 17.8 µM [falling, partial curve, poor fit] | 
CC1=NNC(=O)C1CC(=O)N/N=C/c1cccs1 (stereo not given) | 3.16 µM [falling, single point] | 
COc1cccc(C(=O)Nc2nnc(S(=O)(=O)N3CCOCC3)s2)c1 | 17.8 µM [rising, single point] | 
Cc1sc(NC(=O)c2ccco2)c(C(c2ccc(F)cc2)N2CCN(C)CC2)c1C (stereo not given) | 11.2 µM [falling, partial curve, poor fit] | 
O=C(c1cccc(NS(=O)(=O)c2ccc(Br)cc2)c1)N1CCN(c2ccccc2O)CC1 | 29.1 µM [falling, single point] | 
Cn1c(CCN2CCCCC2)nc2cc(NC(=O)COc3ccc([N+](=O)[O-])cc3)ccc21 | 1.26 µM [falling, full curve, poor fit] | 
Cc1ccccc1N(Cc1nnc2n1CCCCC2)C(=O)Nc1ccccc1 | 35.5 µM [rising, single point] | 
CN(CC(=O)N1CCc2ccccc21)S(=O)(=O)c1ccc(Br)s1 | 29.1 µM [rising, partial curve, poor fit] | 
CCCOC(=O)c1ccc(Oc2c(-c3ccc(OC)cc3O)n[nH]c2C)cc1 | 35.5 µM [falling, single point] | 
CCOc1cc(/C=N/Nc2ccc(C(=O)O)cc2)ccc1OC(=O)c1ccccc1C | 2.24 µM [falling, partial curve] | 
CC(=O)N/N=C(\C)CC(=O)NC(C)(C)C | 6.31 µM [rising, single point] | 
O=C(c1cc(-c2ccccc2O)on1)N1CCCC1 | 11.2 µM [falling, single point] | 
CC(=O)NC(=S)Nc1ccc(NC(=O)c2cccnc2)cc1 | 1.12 µM [rising, full curve, poor fit] | 
